The target of this assay is T1, JCV TAg (JCV (human polyomavirus)) (UniProt P03072).
T1 sequence: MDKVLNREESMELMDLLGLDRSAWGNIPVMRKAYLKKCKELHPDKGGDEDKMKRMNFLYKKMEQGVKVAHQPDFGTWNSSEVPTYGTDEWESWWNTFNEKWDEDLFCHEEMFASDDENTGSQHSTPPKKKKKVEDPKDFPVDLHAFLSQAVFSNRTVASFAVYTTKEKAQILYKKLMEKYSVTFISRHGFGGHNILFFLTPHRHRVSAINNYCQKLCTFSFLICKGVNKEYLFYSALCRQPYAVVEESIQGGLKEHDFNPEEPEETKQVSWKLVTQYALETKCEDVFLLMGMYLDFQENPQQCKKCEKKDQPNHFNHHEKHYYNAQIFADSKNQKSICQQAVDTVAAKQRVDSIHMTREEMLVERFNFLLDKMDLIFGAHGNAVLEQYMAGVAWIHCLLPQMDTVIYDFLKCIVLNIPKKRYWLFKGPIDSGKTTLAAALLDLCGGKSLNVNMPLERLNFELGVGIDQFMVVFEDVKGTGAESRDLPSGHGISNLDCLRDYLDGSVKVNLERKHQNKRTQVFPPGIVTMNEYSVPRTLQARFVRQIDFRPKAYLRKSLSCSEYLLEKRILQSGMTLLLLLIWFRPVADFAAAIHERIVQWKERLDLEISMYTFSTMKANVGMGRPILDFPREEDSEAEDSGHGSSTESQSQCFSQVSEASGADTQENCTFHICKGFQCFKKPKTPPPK
In words: co-immunoprecipitation with anti-pRb2/p130 immune serum and Western blot with PAB 416, and the reverse, on HJC cell lysates.

The chains behind the UniProt entries cited, without tags or fusion partners.
UniProt Q08999: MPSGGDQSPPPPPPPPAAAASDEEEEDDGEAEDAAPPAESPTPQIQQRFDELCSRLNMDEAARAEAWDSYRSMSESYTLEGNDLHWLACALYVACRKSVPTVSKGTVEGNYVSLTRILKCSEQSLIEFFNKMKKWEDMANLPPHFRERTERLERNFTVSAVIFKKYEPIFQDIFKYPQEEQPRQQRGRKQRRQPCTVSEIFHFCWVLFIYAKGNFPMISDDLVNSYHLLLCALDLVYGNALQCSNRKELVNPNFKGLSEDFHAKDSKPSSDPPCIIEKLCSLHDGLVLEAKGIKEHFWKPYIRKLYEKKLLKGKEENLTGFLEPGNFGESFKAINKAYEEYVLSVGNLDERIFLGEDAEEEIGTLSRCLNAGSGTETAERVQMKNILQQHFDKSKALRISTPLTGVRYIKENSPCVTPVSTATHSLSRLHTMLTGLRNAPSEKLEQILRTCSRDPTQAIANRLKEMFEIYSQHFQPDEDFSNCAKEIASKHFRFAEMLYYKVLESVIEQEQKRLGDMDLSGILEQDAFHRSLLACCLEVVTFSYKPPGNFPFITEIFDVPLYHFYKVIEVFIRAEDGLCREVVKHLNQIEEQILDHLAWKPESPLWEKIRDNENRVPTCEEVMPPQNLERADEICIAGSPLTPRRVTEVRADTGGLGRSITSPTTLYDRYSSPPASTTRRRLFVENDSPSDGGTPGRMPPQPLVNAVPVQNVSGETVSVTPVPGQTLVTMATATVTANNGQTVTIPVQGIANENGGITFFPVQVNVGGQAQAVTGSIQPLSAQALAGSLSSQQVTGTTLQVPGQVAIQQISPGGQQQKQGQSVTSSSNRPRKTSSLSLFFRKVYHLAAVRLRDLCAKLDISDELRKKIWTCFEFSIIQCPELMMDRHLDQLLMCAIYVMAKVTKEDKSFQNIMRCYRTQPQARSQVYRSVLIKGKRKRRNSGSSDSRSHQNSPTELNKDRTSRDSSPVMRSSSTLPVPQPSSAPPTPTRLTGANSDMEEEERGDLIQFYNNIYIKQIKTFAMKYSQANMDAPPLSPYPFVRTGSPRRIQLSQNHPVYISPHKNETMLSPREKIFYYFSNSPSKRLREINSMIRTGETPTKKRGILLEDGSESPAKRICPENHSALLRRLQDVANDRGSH

No constants are given. Whether binding was seen depends on the method and setting. In cells and extracts the contact can be indirect. Some results given as binding are weak or reduced against the parent protein; the word gives no strength. Sequences can lack the tags named with a protein.

As for pRb2/p130 (from UniProt Q08999 1-1139), the binding result is reported as “binds”.

Source of the values: patent publication US20020037870A1.
